Results are given in words; binding and its absence hold for the method and conditions named. Binding seen in cells or lysates may run through a third protein. A yes stands for co-enrichment or nearness to the bait. Other partners may have been found. No binding means not detected with the bait. Tags and fused reporters may be left off the sequences shown. Blank lines part the entries; values can stand above or below the binder they belong to.
Columns and labels:
Test in all cases: affinity purification with mass spectrometry; anti-FLAG immunoprecipitation from extracts of S. pombe strains expressing Mis17-, Mis6- or Mis12-FLAG under the native promoter; extraction buffer 25 mM HEPES-KOH pH 7.5, 200 mM NaCl, 10% glycerol, 0.1% NP-40, 1 mM PMSF; 4-12% SDS-PAGE, gel slices, in-gel trypsin digestion, LC/MS/MS
[1] = target: T1, Mis17-FLAG (S. pombe) (UniProt O94643)
T1 sequence: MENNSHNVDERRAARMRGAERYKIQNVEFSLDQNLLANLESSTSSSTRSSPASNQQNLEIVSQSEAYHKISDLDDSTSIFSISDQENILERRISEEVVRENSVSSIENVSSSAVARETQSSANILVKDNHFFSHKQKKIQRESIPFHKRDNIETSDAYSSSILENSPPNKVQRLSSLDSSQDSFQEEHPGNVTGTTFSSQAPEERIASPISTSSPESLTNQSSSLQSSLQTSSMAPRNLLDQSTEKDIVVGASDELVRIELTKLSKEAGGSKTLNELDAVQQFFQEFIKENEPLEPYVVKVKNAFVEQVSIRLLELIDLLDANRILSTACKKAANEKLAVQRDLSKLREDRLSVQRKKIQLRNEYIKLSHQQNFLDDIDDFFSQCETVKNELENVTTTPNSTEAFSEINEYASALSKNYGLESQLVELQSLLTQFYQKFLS

[2] = target: T2, Mis6-FLAG (S. pombe) (UniProt P87227)
T2 sequence: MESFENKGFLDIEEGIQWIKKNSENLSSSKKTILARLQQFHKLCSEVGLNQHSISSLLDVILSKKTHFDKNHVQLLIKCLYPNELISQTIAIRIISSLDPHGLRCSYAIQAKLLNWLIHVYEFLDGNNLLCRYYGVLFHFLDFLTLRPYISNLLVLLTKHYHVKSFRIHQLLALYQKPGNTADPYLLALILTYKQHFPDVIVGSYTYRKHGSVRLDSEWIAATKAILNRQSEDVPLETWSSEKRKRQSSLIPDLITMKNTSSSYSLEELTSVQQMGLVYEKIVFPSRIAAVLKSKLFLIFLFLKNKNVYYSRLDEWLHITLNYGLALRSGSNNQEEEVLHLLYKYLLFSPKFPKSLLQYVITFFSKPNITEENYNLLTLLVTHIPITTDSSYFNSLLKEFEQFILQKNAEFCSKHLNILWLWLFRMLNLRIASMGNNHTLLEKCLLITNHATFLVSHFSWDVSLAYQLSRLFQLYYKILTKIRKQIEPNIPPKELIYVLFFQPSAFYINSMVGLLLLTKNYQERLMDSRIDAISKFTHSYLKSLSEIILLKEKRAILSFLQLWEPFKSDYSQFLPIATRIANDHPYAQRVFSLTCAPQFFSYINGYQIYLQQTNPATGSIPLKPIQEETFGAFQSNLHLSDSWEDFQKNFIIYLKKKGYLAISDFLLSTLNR

[3] = target: T3, Mis12-FLAG (S. pombe) (UniProt Q9Y738)
T3 sequence: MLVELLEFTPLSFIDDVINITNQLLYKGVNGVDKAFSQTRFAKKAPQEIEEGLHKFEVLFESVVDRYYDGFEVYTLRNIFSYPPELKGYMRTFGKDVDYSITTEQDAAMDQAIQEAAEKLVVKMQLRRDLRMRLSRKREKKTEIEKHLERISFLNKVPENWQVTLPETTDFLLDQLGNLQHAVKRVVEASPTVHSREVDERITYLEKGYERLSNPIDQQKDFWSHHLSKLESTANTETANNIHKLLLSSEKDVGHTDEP

binding [1]: binds
binding [2]: binds
binding [3]: no binding
B1: Mis15 (protein, UniProt Q9C0W0 1-409)
chain: MRTELSSNIRIKHDKKIQKLLNRFPRDFLVKLCVEWIQKQTYPPNAKDINLEDMLDDEEWNPEAFYKNVPKSMLKRSIIHRMLVYDWPNGFYLGQIAQLEILALAHGFVSMRWTASKVHHSAEKTVLPNPLVFLELLKSELESIFVYHTYISRHETLPITFIRLVLWDSKRPTALHTYPSSKQIFYLGLMDDSDVLLHNIFLRNDVCHSLFLQCLSRLLYRLKAGSALRPIDLVSKNLTTFCTNVGVNKEANALGAWQIYAKNLVDRSPLDTRPILSDDNSSLIADSTQNCEKHREMAIQRRFGDTHSQVLDKLLITLDHDYIEKSTEKDKVLEENVESYNPTEQRPLVVMQLRGQHILEGLKDICRQDALDPFTMPSYLTGETGLSILYVRDGLVLQRQESLGQQEIN

binding [1]: binds
binding [3]: no binding
B2: Mis6 (protein, UniProt P87227 1-672)
chain: T2 sequence

binding [1]: binds
binding [2]: binds
binding [3]: no binding
B3: Sim4 (protein, UniProt O94494 1-277)
chain: MNSENASLFRNILNDTENLVQPLTQDESRLALFESLVQSDQLLVEKIEKWEKKVSKFTENSKSEKRKLQLELFQEIIDLKKCIAFKPIIGKNAIDNNISDLKKNLHSNKKLEAVLKEELHQIKKFSSDLQSLKSSMGERQKQQAAMSRRGKKSIIHSAIIQEKERYEKESQELFTFLDGFLDEHAPSLLEGAQASIDKNRPGKNQPSLNFENISKKDLTEEFKQVIENLMNNSIIPGSPYIEVKNERIVSFLVLASLCTVDPQDPSKVKLIPFSDEI

binding [1]: no binding
binding [2]: no binding
B4: Mis12 (protein, UniProt Q9Y738 1-259)
chain: T3 sequence

binding [1]: binds
binding [2]: binds
binding [3]: no binding
B5: Fta1 (protein, UniProt O36024 1-280)
chain: MTLRDHHFYNVTYTAYRLSPLFGFEYSNLTEIGKKLTRFLRYGTDRTGYFTNSTRFADLIIEKATFTEFGNTSSFPKFLKLDISYETSSDLEVKRKGQMFFFESFRKFSHAEADRTRLSLEGNSVFFSLALVRMDGALWMAVEQFLQQEFDTQILPCLIAPEILLEFLKIWQNHVNSQTALPLELTWTTGNPNLSSVTISIRPEDLKKIFRSSSFFYPILMEHIKRCTSLDLTNSVFSLSKVNTDCAILTSSGKLKIFSKAQNIVFDVLLALEPMQLPEY

binding [1]: binds weakly
binding [2]: binds
B6: Dad1 (protein, UniProt P87297 1-90)
chain: MSSENMDITENIQNEQNKDFDDIDFERRRRLLTLQISKSMNEVVNLMSALNKNLESINGVGKEFENVASLWKEFQNSVLQKKDREMLDAP

binding [1]: binds
binding [2]: binds
binding [3]: no binding
B7: Fta2 (protein, UniProt Q9US26 1-351)
chain: MSGRRYSQISQQEGSSSSDDSDSQQKKTKRTVAHRSPNTTLNGMPRVDSRARPNENSGQSKSSNGRVDTDRKMDLLRKRSNLVHQTLLLEKEVRVRRNAINQRDDSFLSGFIKSLLEIDSSVVIYNTENPDNPKTKQVMPSAEPKKHVKLNSSISSIRFTQHEFEAESEKIIHHSLKGDIEYLPSFKFLLEIKVRTIDYALLFITYKIPHFARKELSSFSDSAIQCLDIVALLRAFSLFAHHYSYRCNTWFYLSKHMKKVASANMDAQCFYVQNSFYKITILYEIKFDDLGFVQPNYCISYILKNQNEKIVSITSKLLNQLDKRFSEFVSLFGFREGSLLLLQALFKPHLG

binding [1]: binds
binding [2]: binds
binding [3]: no binding
B8: Fta7 (protein, UniProt O74844 1-244)
chain: MEMKRRVRAVRRDQIQKRWRPLEDKQRQEIIIIFRTCSRLVLNTIKSETRKSLAEEWFMNILLKIEAPLRNLPVPRKRKESILFSQLLSSNMQLEQQLYSDLDHINVLQQELKVETARLENEQKSYEEMKQNMAINNSRLADLKSKLHPYLKKGLKISHDNFSDSNDFSFQKKLNTEDSNTSKTSTLDMYKEKLKPFTKTMQIHANKTVQLSQTIQKATLLLQRLNNTKNIGLNKSSKLKIKNI

binding [1]: binds
binding [2]: binds
binding [3]: no binding
B9: Cnl2 (protein, UniProt O13952 1-188)
chain: MNMEEQILNDYLLSQGRLQSIISLEQWRQLFPQRYREDPLIERLYEYCTQQRQKRLAKLRANIHLESQVIGKSRIDRMLATNVEKLQTVSHASTLHDVEEFYTSHSAKPLDISEINERLSEAVQSAYTKLNEEKERCTQLTLKMNSQIASLSDFQWSKEPNVDESIHLVESLIESLEKAAPSAIEELD

binding [2]: binds
binding [3]: no binding
B10: Mis17 (protein, UniProt O94643 1-441)
chain: T1 sequence

binding [1]: binds
binding [2]: binds
binding [3]: no binding
B11: Mal2 (protein, UniProt Q10290 1-303)
chain: MDDEEGNATLIDEISVLEARRDVLLDELKSLDNATLSDLVQKPELSKNLSVNNEFLKETPLNQPALHYDRLSGISFFQPNDPEELSRKTLLVKNKKTGAIETAPSIPLLGVRFDIMLNPVNIGFTNLSENPISSASGMDEELEGGNRFDVPYYIIFRVFHDSFALYKYTIPSFLNIQEWADEYLTGKNPERFRIFLWKVDKLLTAYICRKNALLQINKSLTIDGTNISANLSCTHLVIQIPKVIQATLVCSSESTRVVKSRIYQYSDENWKRDHRLELSLLDNKRWVNILVSHLTAPESHASL

Reference: PMC3061866
